The target of assay [1] is HTLV-1 Tax protein (construct of the pull-down and co-immunoprecipitation not stated) (HTLV-1) (UniProt P03409). Nature of the assay: pull-down; GST pull-down, data not shown; which protein carried GST not stated.
Assay [2] shares this target. Nature of the assay: co-IP; co-immunoprecipitation in HEK293 cells, data not shown.

Amino acid sequences for entries named in this document (tags omitted).
UniProt Q8TEW0: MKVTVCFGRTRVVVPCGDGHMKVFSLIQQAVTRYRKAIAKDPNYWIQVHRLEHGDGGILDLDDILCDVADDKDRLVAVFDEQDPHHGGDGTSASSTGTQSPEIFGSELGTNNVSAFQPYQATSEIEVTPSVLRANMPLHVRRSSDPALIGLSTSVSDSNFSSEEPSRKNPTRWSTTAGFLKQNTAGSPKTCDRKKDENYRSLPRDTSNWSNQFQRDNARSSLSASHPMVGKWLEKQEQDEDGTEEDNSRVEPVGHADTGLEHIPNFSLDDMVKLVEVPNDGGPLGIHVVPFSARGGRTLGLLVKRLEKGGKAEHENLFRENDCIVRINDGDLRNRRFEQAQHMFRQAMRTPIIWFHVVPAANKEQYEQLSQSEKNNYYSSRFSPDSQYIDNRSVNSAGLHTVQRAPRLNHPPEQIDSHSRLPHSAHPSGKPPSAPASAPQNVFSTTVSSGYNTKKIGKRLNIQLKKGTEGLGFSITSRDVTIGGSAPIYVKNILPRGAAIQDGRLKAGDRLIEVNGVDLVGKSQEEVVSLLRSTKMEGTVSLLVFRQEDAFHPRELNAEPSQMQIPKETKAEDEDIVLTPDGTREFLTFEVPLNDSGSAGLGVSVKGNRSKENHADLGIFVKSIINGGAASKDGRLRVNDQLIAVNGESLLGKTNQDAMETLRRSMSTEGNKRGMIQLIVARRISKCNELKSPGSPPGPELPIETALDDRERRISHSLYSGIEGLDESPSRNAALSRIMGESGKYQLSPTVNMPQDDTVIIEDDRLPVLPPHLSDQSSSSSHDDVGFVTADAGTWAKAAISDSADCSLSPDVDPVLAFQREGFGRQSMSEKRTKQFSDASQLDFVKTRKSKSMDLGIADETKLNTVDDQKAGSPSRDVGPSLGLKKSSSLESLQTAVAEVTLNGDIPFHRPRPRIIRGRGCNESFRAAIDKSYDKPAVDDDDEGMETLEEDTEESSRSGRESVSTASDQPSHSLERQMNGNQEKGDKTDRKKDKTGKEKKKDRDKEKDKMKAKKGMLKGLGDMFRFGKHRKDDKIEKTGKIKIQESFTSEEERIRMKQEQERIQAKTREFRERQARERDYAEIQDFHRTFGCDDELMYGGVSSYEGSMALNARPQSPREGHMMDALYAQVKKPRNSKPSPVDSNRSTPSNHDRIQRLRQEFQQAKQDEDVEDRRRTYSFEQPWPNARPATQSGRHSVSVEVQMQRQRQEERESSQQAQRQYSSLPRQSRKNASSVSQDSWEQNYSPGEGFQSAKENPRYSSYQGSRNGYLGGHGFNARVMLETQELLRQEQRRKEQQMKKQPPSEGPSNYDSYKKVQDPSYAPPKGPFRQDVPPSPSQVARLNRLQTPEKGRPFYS

Results are given in words; binding and its absence hold for the method and conditions named. In cells and extracts the contact can be indirect.

Turning to “Partitioning defective 3 (PAR3) (construct of the pull-down and co-immunoprecipitation not stated) (from UniProt Q8TEW0 1-1356)”, the binding entry in assay [1] and in assay [2] was “no binding” in each case.

The values are drawn from PMC5744130.
